# In patent US7390875B2 (Institut Pasteur de Lille, priority 2000, dated 2008):
# Experiments:
# [1] = general procedure: Fmoc solid-phase peptide synthesis; Fmoc-PAL-PEG-PS; HBTU/HOBt/DIEA; conditions: whole synthesis
# [2] = general procedure: Fmoc solid-phase peptide synthesis; Fmoc-Lys(Boc2NN(Boc)CH2CO)-PAL-PEG-PS; Fmoc-PAL-PEG-PS; Rink amide MBHA PS; Rink amide AM-PS; HBTU/HOBt/DIEA; conditions: whole synthesis; for final purity (method not given): scale of the general procedure 0.1-0.25 mmole; for isolated mass / isolated yield: scale 0.25 mmole
# [3] = general procedure: Fmoc solid-phase peptide synthesis; Rink amide resin MBHA PS; HBTU/HOBt/DIEA; conditions: whole synthesis
substance,measurement,setting,value
Ac-K(COCH2NHNH2)-ISQAVHAAHAEINEAGR-NH2,isolated mass,[1]; scale 0.10 mmole,74 mg
same,isolated yield,[1]; scale 0.10 mmole,yield 30%
Ac-QYIKANSKFIGITELKK K(COCH2NHNH2)-NH2,final purity (method not given),[2],97%
H2NNHCH2CO-K(COCH2NHNH2)-AKFEVNNPQVQRQAFNELIR-VVHQLLPESSLRKRKRSR-NH2,isolated mass,[3],16.1 mg
same,isolated yield,[3]; scale of the general procedure 0.1-0.25 mmole,yield 8.5%
H2N—VYKAL-NH2,isolated mass,[2],27.8 mg
same,isolated yield,[2],13.3%
H-DWQDYTSGPGIRYPKTFGWLWKLVK(COCH2NHNH2)-NH2,final purity (method not given),[2],90%
H-EKGGLEGIYYSARRHRILDMYLEK(COCH2NHNH2)-NH2,final purity (method not given),[2],93%
H-K(COCH2NHNH2)AKFEVNNPQVQRQAFNELIRVVHQLLPESSLRKRKRSR-NH2,isolated mass,[1]; scale 0.1 mmole,158 mg
same,isolated yield,[1]; scale 0.1 mmole,26%
H-K(COCH2NHNH2)GAVVGGLGGYMLGSAMSR-NH2,crude mass,[1]; scale 0.2 mmole,360 mg
same,isolated mass,[1]; scale 0.2 mmole,117 mg
H-K(COCH2PSRENQNAVKIQKLSVVLRREQKHRVERLAFRNQSLPF-NH2,isolated mass,[1]; scale 0.1 mmole,120 mg
same,isolated yield,[1]; scale 0.1 mmole,20%
H-KVGFFKR-NH2,isolated mass,[2],123 mg
same,isolated yield,[2],36%
H-SKWDDPWGEVLAWKFDPTLAYTYEAK(COCH2NHNH2)-NH2,final purity (method not given),[2],99%
H-SVRPKVPLRAMTYKLAIDMSHFIKEKK(COCH2NHNH2)-NH2,final purity (method not given),[2],100%
H-YTYEAYARYPEELEASQACQRKRLEEGK(COCH2NHNH-2)-NH2,final purity (method not given),[2],93%
